Reference: US20220242906A1
These are yes or no findings as the source states them, for the method shown.

Columns and labels:
[1] = biological target: MDM2; assay: NGS-enhanced phage display, control selection on MDM2, three replicates
[2] = biological target: eIF4A; assay: NGS-enhanced phage display, control selection on eIF4A, three replicates

| Binder | binding [1] | binding [2] |
| --- | --- | --- |
| ACETGFFTGCG (C2-C10 disulphide bond (C7C constrained loop)) [EE-1] | no binding | no binding |
| ACELGYYNDCG (C2-C10 disulphide bond (C7C constrained loop)) [EE-3] | no binding | no binding |
| ACETGFFLKCG (C2-C10 disulphide bond (C7C constrained loop)) [EE-4] | no binding | no binding |
| ACELGFYRLCG (C2-C10 disulphide bond (C7C constrained loop)) [EE-5] | no binding | no binding |
| ACETGFFLRCG (C2-C10 disulphide bond (C7C constrained loop)) [EE-6] | no binding | no binding |

The next lines start with the values.

| binding [1] | binding [2] | Binder |
| --- | --- | --- |
| no binding | no binding | ACEMGYFGNCG (C2-C10 disulphide bond (C7C constrained loop)) [EE-9] |
| no binding | no binding | ACETGYFSQCG (C2-C10 disulphide bond (C7C constrained loop)) [EE-7] |
| no binding | no binding | ACIHSPTSLCG (C2-C10 disulphide bond (C7C constrained loop)) [Peptide 45] |
| no binding | no binding | ACETGFYKTCG (C2-C10 disulphide bond (C7C constrained loop)) [EE-8] |
